The list shows a part of the results.
B1: il10ra_site1_sap_12_mot_b26a303360aa2756ef5b79665ce52f45_0001_000000179_0001_1_11_H_._HHH_b2_03096_0001_0000100002_0000001_0_0001 (protein)
chain: SSSSSAQEEARELLEEAEELLRQGNPEEALKALQRAVRLAIRASDEELLQEIWRLVLEAASSSSS
B2: il10ra_site1_sap_20_mot_HHH_b1_05254_000000006_0001_1_19_H_._HHH_b1_07585_0001_0000200008_0000002_0_0001_af2pred_dldesign_0_af2pred (protein)
chain: SSSSSAAEEAAIDRAVAYAKWLSKYDPEAAKYILQTALEFAESIGHPRAKEIRELLKELESSSSS
B3: il10ra_site1_normal_mot_HHH_b1_05056_000000217_0001_1_20_H_._HHH_b2_03886_0001_0000900047_0000001_0 (protein)
chain: SSSSSDEEYEERVEELLERAEENPEHAQELLQRAVQVAFEAKDPELLRLIWRVVRELAKSSSSSS
B4: il10ra_site1_sap_19_mot_HHH_b2_01032_000000296_0001_1_18_H_._HHH_b2_05460_af2_0001_0000100004_0000002_0_0001 (protein)
chain: SSSSSRDLEQRARALLWFARLISDPEARRIALEEAEKVAEEAGDEELLKEIREELEEVGSSSSSS
B5: il10ra_site1_normal_mot_ems_3hM_3349_af2_000000045_0001_25_42_H_._266e3d37dc3f395c50bcd643833a3814_0001_0001_0000400019_0000001_0 (protein)
chain: PEEAEELARRFKEGDPEAEELVEELVAELLGIPPELVRKALELQEEQIGDPEQAVKALIAVALAN
B6: il10ra_site1_normal_mot_HHH_b1_03094_000000294_0001_1_20_H_._HHH_b2_05364_0001_0000100007_0000001_0 (protein)
chain: SSSSDEENQQALELSLEALRLALRGNPEEAKEVLEEALELAREAGNEQLVRTLEELLKALGSSSS
B7: il10ra_site1_normal_mot_HHH_b2_02116_af2_000000165_0001_41_55_H_._HHH_b1_06457_0001_0000100001_0000001_0 (protein)
chain: SSSDHERAVELLLRAAEIAFERGNPHQARAAIRLAREIAERINDEELEELVEEVERRLEESSSSS
B8: il10ra_site1_sap_24_mot_HHH_b2_07873_af2_000000172_0001_1_19_H_._HHH_b2_07020_0001_0000200011_0000002_0_0001 (protein)
chain: SSSSDLEEEIEELLKELEELIKEGDHERILHLIQRIEHLIFQASNAELLEILWELAKRHISSSSS
B9: il10ra_site1_normal_mot_HHH_b2_03425_000000200_0001_22_39_H_._HHH_b2_07864_af2_0001_0000400039_0000001_0 (protein)
chain: SSSSTEENEELYRLLRELIELVHEGDEEEFERLLEEVERLAKELNNFAIRFVVRLLERDLTSSSS
B10: il10ra_site1_normal_mot_HHH_b1_05860_000000142_0001_1_19_H_._HHH_b2_02987_af2_0001_0000200006_0000001_0_af2pred_dldesign_0_af2pred (protein)
chain: SSSSNPNEEIVELIREAAELLAEGKPEEARELLERARALAEAANNPILIATVDFLLKQVESSSSS
B11: il10ra_site1_normal_mot_HHH_b2_05686_000000041_0001_1_18_H_._HHH_b2_01846_0001_0000100018_0000001_0 (protein)
chain: SSSSTAEESLRFALRLAEERIELGNPEHARVVLELALRFAKESEDEELLEEVEKLLEELGSSSSS
B12: il10ra_site1_normal_mot_HHH_b1_03859_af2_000000004_0001_44_57_H_._HHH_b1_08440_0001_0000100002_0000002_0_af2pred_0001 (protein)
chain: SSSSSEVLKEAAQLYLEAAELLEEGDKEEVEKIIEELRELSEEYGDEIVKLILKDLEASLSSSSS
B13: il10ra_site1_sap_21_mot_HHH_b1_05254_000000006_0001_1_19_H_._74d410084df75ce7804895407938b8fc_0001_0001_0000400013_0000001_0_0001 (protein)
chain: SSSSTVMRISLRVLLELVRELEKEGDPERAEEVLEMAEEYAEQAGDEELLEEIRRLLEELRSSSS
B14: il10ra_site1_sap_18_mot_HHH_b2_01310_000000089_0001_41_55_H_._HHH_b1_07565_0001_0000100004_0000002_0_0001 (protein)
chain: SSSSSSDLEELLEELEQLLEEGDRERFLRVAQEILRLAFQLSDPEVLRAVWELVKKLASSSSSSS
B15: il10ra_site1_normal_mot_HHH_b2_03328_af2_000000127_0001_1_19_H_._HHH_b1_06423_0001_0000100002_0000001_0_af2pred_0001 (protein)
chain: SSSSSSSHTERIRELAEEALRIEDPEEAREVVEEAEELAEENNNLVALVNIRFLLELLSSSSSSS
B16: il10ra_site1_sap_22_mot_HHH_b1_04327_000000247_0001_1_20_H_._HHH_b2_00385_af2_0001_0000200012_0000001_0_0001 (protein)
chain: SSSSSDKREEALELAKEAFRLLLRGNPEEAREVLEEAEEVAKEAGNEHIKEMLRDLLRAASSSSS
B17: il10ra_site1_sap_40_mot_HHH_b1_00102_af2_000000216_0001_43_57_H_._HHH_b1_07360_0001_0000500039_0000002_0_0001_af2pred_0001 (protein)
chain: SSSSSDEEELEEEAKRLMEELEKHGDPELFTRLAELAKLLAELGNPLFEEVAELLARLQSSSSSS
B18: il10ra_site1_sap_10_mot_HHH_b1_06819_af2_000000053_0001_23_38_H_._69439ac408d0f939e9e32959957563f1_0001_0001_0000200021_0000001_0_0001 (protein)
chain: SSSSSEELERVFELARELAELLHEGDEERFKEVLEELERLVEELNNDVFRMIVEYLEKALSSSSS
B19: il10ra_site1_sap_11_mot_05ca327611f5605f0dd8494b449afcbf_0001_1_000000248_0001_35_51_H_._HHH_b2_04323_af2_0001_0000100001_0000001_0_0001_af2pred_0001 (protein)
chain: SSSSDEAHELARRAIELILRLLKEGNPEEAEEVYEEFKRLLEELGDESALLSLEFALERNSSSSS
B20: il10ra_site1_sap_22_mot_HHH_b2_05454_000000273_0001_1_18_H_._HHH_b1_05327_0001_0000200017_0000001_0_0001 (protein)
chain: SSSSSSEEELRERVEELLEEAEQITNWEEAIEVLLEALQLAIQGQDPELLQRVWEVVHRLSSSSS
B21: il10ra_site1_normal_mot_HHH_b1_00137_000000000_0001_1_19_H_._HHH_b2_06740_0001_0000300009_0000002_0 (protein)
chain: SSSDDQERTRFAAEVVVRLYDELGLSREQLQVLQELALKLVLEGFSEEEIREILEEVAKELSSSS
B22: il10ra_site1_normal_mot_8756ee2cf497b5429c717dfc0c0bcfd6_0001_000000186_0001_1_13_H_._HHH_b2_04770_af2_0001_0000600021_0000002_0 (protein)
chain: SSSSSSDEALRRVIELIRLAVQIEDEEELQEVLEEARELAEELGNDVLKWQVEYLLRNLTSSSSS
B23: il10ra_site1_normal_mot_HHH_b2_03425_000000200_0001_22_39_H_._HHH_b2_05523_af2_0001_0000100001_0000002_0 (protein)
chain: SSSSDERREEAYELLRELIEAVREGNEELFEKIAEEIKELIEELGSELLRFVLEHLEKDLGSSSS
B24: il10ra_site1_sap_29_mot_HHH_b1_05377_000000047_0001_42_55_H_._HHH_b1_07220_0001_0000200022_0000001_0_0001 (protein)
chain: SSSSSDENEEAMELLREASELAQKGDREKAEEVLEEALELAERLGNMVLQWSIRYLLERLSSSSS

Biological target: il10ra, Q13651
Assay: yeast display titration

Apparent Kd, inactive:
B1 no binding seen, B2 no binding seen, B3 no binding seen, B4 no binding seen, B5 no binding seen, B6 no binding seen, B7 no binding seen, B8 no binding seen, B9 no binding seen, B10 no binding seen, B11 no binding seen, B12 no binding seen, B13 no binding seen, B14 > 1080 nM, B15 no binding seen, B16 no binding seen, B17 no binding seen, B18 no binding seen, B19 no binding seen, B20 no binding seen, B21 no binding seen, B22 no binding seen, B23 no binding seen, B24 no binding seen

From publication PMC10163288
